Our source for the binding values is patent publication US20030040089A1.

Results are given in words; binding and its absence hold for the method and conditions named. Binding can be weak; no strength is given.

For the experiment, the target named is Rho protein-dependent protein kinase (Human). Kind of experiment: yeast two-hybrid.

B1: Human Splicing Factor 1 (protein)
chain: ATGANATPLDFPSKKRKRSRWNQDTMEQKTVIPGMPTVIPPGLTREQERAYIVQLQIEDLTRKLRTGDLGIPPNPEDRSPSPEPIYNSEGKRLNTREFRTRKKLEEERHNLITEMVALNPDFKPPADYKPPATRVSDKVMIPQDEYPEINFVGLLIGPRGNTLKNIEKECNAKIMIRGKGSVKEGKVGRKDGQMLPGEDEPLHALVTANTMENVKKAVEQIRNILKQGIETPEDQNDLRKMQLRELARLNGTLREDDNRILRPWQSSETRSITNTTVCTKCGGAGHIASDCKFQRPGDPQSAQDKARMDKEYLSLMAELGEAPVPASVGSTSGPATTPLASAPRPAAPANNPPPPSLMSTTQSRPPWMNSGPSESRPYHGMHGGGPGGPGGGPHSFPHPLPSLTGGHGGHPMQHNPNGPPPPWMQPPPPPMNQGPHPPGHHGPPPMDQYLGSTPVGSGVYRLHQGKGMMPPPPMGMMPPPPPPPSGQPPPPPSGPLPPWQQQQQQPPPPPPPSSSMASSTPLPWQQNTTTTTTSAGTGSIPPWQQQQAAAAASPGAPQMQGNPTMVPLPPGVQPPLPPGAPPPPPPPPPGSAGMMIPPRGGDGPSHESEDFPRPLVTLPGRQPQQRPWWTGWFGKAA
For B1, the binding entry was “binds”.
